Source: US20100120688A1
No constants are given. Whether binding was seen depends on the method and setting. Some results given as binding are weak or reduced against the parent protein; the word gives no strength.

Tests used:
[1] = target: erbB2-SbdIV (recombinantly expressed subdomain IV of erbB2, GST fusion protein) (UniProt P04626); test: SPR (Biacore), erbB2-SbdIV immobilized, peptide injected; target per legend paragraph 39 (the sheet prints no target)
[2] = target: erbB2-SbdIV (recombinantly expressed subdomain IV of erbB2, GST fusion protein) (UniProt P04626); test: SPR (Biacore), peptide over immobilized erbB2-SbdIV

Binder: YCPIWKFPDEECY (cyclized by a disulfide bond between the two cysteines (air oxidation)) [B2-S22-APE (derived from erbB2)]
- binding [1]: binds

Binder: YCLVWKYADAGCY (cyclized by a disulfide bond between the two cysteines (air oxidation)) [B1-S22-ALG (derived from erbB1)]
- binding [2]: binds

Binder: YCPIYKYPDVQCY (cyclized by a disulfide bond between the two cysteines (air oxidation)) [B3-S22-APQ (derived from erbB3)]
- binding [2]: binds

Binder: YCFIFKYADPDCY (cyclized by a disulfide bond between the two cysteines (air oxidation)) [B4-S22-AFD (derived from erbB4)]
- binding [2]: binds

Binder: YCFPDEEGACY (cyclized by a disulfide bond between the two cysteines (air oxidation)) [B2-S22-AFA (derived from erbB2)]
- binding [2]: binds
